The text below walks through data of paper PMC9564178 (Cells, 2022).

These are yes or no findings as the source states them, for the method shown. For some assays here: In cells and extracts the contact can be indirect. Some binding calls cover weakened binding; strength is not graded here. Sequences can lack the tags named with a protein.

Test [1] addresses T1, human recombinant TPPP3 (hexaHis fusion) (human) (UniProt Q9BW30).
T1 sequence: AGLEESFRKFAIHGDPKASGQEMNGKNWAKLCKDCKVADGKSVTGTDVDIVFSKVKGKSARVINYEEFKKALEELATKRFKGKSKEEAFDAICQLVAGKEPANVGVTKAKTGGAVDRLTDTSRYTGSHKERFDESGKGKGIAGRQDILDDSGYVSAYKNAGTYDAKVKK
The test is described as follows: ELISA; TPPP3 immobilised on the plate; extracts of HeLa cells transfected with pEGFP-TPPP3 or pEGFP-TPPP1 added at different concentrations; detected by GFP antibody; only the target purified. A general note: In an ELISA, binding on a coated surface is turned into a signal by an enzyme label.

The target of test [2] is TPPP1 fused to the N-terminal half of mVenus (pBiFC-V^N-TPPP1) (human) (UniProt O94811). The test is described as follows: split reporter; BiFC with half-mVenus constructs (100-100 ng for each V^N-V^C pair) in HeLa cells, fixed with cold methanol; 100 ng unlabeled TPPP3 plasmid co-transfected as competitor where mentioned.
Test [3] addresses TPPP3 fused to a half of mVenus (pBiFC-V^N-TPPP3 and pBiFC-V^C-TPPP3) (human) (UniProt Q9BW30). The test is described as above.

Regarding EGFP-TPPP1 (from UniProt O94811 1-219), the binding result in test [1] is reported as “binds”.

B1: unlabeled TPPP3 (pcDNA3.1(-)-TPPP3) (protein, UniProt Q9BW30 1-176)
chain: MAASTDMAGLEESFRKFAIHGDPKASGQEMNGKNWAKLCKDCKVADGKSVTGTDVDIVFSKVKGKSARVINYEEFKKALEELATKRFKGKSKEEAFDAICQLVAGKEPANVGVTKAKTGGAVDRLTDTSRYTGSHKERFDESGKGKGIAGRQDILDDSGYVSAYKNAGTYDAKVKK
Turning to B1, the binding result in test [2] was “binds”.

B2: EGFP-TPPP3 (protein, UniProt Q9BW30 1-176)
chain: MAASTDMAGLEESFRKFAIHGDPKASGQEMNGKNWAKLCKDCKVADGKSVTGTDVDIVFSKVKGKSARVINYEEFKKALEELATKRFKGKSKEEAFDAICQLVAGKEPANVGVTKAKTGGAVDRLTDTSRYTGSHKERFDESGKGKGIAGRQDILDDSGYVSAYKNAGTYDAKVKK
Consider B2, for which the binding entry in test [1] is “binds”.

B3: TPPP3 fused to a half of mVenus (pBiFC-V^N-TPPP3 and pBiFC-V^C-TPPP3) (protein, UniProt Q9BW30 1-176)
chain: MAASTDMAGLEESFRKFAIHGDPKASGQEMNGKNWAKLCKDCKVADGKSVTGTDVDIVFSKVKGKSARVINYEEFKKALEELATKRFKGKSKEEAFDAICQLVAGKEPANVGVTKAKTGGAVDRLTDTSRYTGSHKERFDESGKGKGIAGRQDILDDSGYVSAYKNAGTYDAKVKK
In the case of B3, the binding result in test [2] and in test [3] was “binds” each time.
